PMC4301919, “Helical Defects in MicroRNA Influence Protein Binding by TAR RNA Binding Protein”

How the values were obtained:
TRBP-dsRBD2 = test system: T1, TRBP-dsRBD2; test: EMSA; settings: apparent Kd, nH >1; 50 mM sodium cacodylate pH 7.0, 50 mM potassium glutamate, 5% glycerol; EMSA 0.5 pM RNA, 30 min at room temperature, gel 0.25X TBE at 10 C; recombinant protein; residues 139-215; label: 5'-32P top strand (EMSA)
T1 sequence (looked up): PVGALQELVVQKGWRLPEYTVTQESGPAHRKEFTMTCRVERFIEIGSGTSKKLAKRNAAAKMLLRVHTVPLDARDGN

TRBP-dsRBD1 = test system: T2, TRBP-dsRBD1; test: EMSA; settings: apparent Kd, nH >1; 50 mM sodium cacodylate pH 7.0, 50 mM potassium glutamate, 5% glycerol; EMSA 0.5 pM RNA, 30 min at room temperature, gel 0.25X TBE at 10 C; recombinant protein; residues 9-85; label: 5'-32P top strand (EMSA)
T2 sequence (looked up): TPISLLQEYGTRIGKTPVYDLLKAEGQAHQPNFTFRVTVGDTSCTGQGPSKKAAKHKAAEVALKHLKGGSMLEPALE

“GUCAGCAGUGCCUUAG / CUAAGGCACUGCUGAC [ds16]” was tested, and the Kd (TRBP-dsRBD2) was > 11 µM and the Kd (TRBP-dsRBD1) was > 15 µM.

Where a protein sequence is shown, tags need not be part of it.
